Results reported in PubChem BioAssay AID248 (DTP/NCI, 2004).
The list does not hold the whole screen: it is rich in T/C values a quarter to a half above the control, in often repeated tests (any T/C) and in doses without a T/C. Other doses and runs of a compound stand elsewhere. T/C: endpoint of the treated group in % of that of the vehicle group. Some doses have a count of surviving animals in place of a T/C: the source holds a T/C of zero for them, seemingly a mark for toxic or unscored doses. Some doses without a T/C left all or most animals alive at the check, yet need not have been tolerated: survival well below the control is almost never listed, so the zero probably covers shortened survival too. Survivors were counted at the toxicity check, usually on the fifth day, unless a day is given; later deaths do not show. Schedules are NCI's codes, read here as Q, the interval in days (D) or hours (H), X, the number of doses. Where survival is the endpoint, the PubChem record calls one and a half times the control and up active, and a quarter to a half above the control has no call in these data; cut-offs in other NCI protocols can differ.

Test system: L1210 leukemia ip in BDF1 mice, survival T/C
Test: NCI In Vivo Anticancer Drug Screen. Data for tumor model L1210 Leukemia (intraperitoneal) in B6D2F1 (BDF1) mice
Conditions: higher T/C = longer survival
[1] = T/C endpoint: mean survival time, dose: 200.0 mg/kg/injection, schedule: Q01DX001 (ip), vehicle: other
[2] = T/C endpoint: mean survival time, dose: 400.0 mg/kg/injection, schedule: Q01DX001 (ip), vehicle: other
[3] = T/C endpoint: mean survival time, dose: 400.0 mg/kg/injection, schedule: Q01DX009 (ip), vehicle: saline with Tween-80
[4] = T/C endpoint: mean survival time, dose: 400.0 mg/kg/injection, schedule: Q04DX003 (ip), vehicle: saline
[5] = T/C endpoint: mean survival time, dose: 100.0 mg/kg/injection, schedule: Q01DX009 (ip), vehicle: saline with Tween-80
[6] = T/C endpoint: mean survival time, dose: 200.0 mg/kg/injection, schedule: Q01DX009 (ip), vehicle: saline with Tween-80
[7] = T/C endpoint: mean survival time, dose: 300.0 mg/kg/injection, schedule: Q01DX001 (ip), vehicle: saline

C1=Nc2c(ncnc2SCc2ccccc2)NN1
survivor count [1]: 2 of 4 | survivor count [2]: 0 of 4

NC(=O)Nc1ccc(Cl)cc1
survivor count [3]: 3 of 6

CC(CN(C)C)CN1c2ccccc2Sc2ccc(C(F)(F)F)cc21 (stereo not given)
survivor count (T/C endpoint: mean survival time, dose: 25.0 mg/kg/injection, schedule: Q01DX009 (ip), vehicle: saline): 3 of 6 | survivor count (T/C endpoint: mean survival time, dose: 50.0 mg/kg/injection, schedule: Q04DX003 (ip), vehicle: saline): 1 of 4 | survivor count (T/C endpoint: mean survival time, dose: 100.0 mg/kg/injection, schedule: Q04DX003 (ip), vehicle: saline): 0 of 4 | survivor count (T/C endpoint: mean survival time, dose: 200.0 mg/kg/injection, schedule: Q04DX003 (ip), vehicle: saline): 0 of 4 | survivor count [4]: 0 of 4

O=C(Nc1ccc(S(=O)(=O)F)cc1)/C(=C/c1ccc([N+](=O)[O-])cc1)c1ccccc1
survivor count [5]: 5 of 6 | survivor count [6]: 4 of 6 | survivor count [3]: 1 of 6

CCCCCCCCNC(=O)c1ccc([N+](=O)[O-])s1
survivor count (T/C endpoint: mean survival time, dose: 50.0 mg/kg/injection, schedule: Q01DX005 (ip), vehicle: saline): 2 of 4

CC(Oc1nc2c(c(=O)n(C)c(=O)n2C)n1C)C1CCCC1 (stereo not given)
survivor count [1]: 1 of 4 | survivor count [2]: 0 of 4

C/C=C/C(=O)Nc1ccccc1F
survivor count (T/C endpoint: mean survival time, dose: 400.0 mg/kg/injection, schedule: Q01DX009 (ip), vehicle: Klucel (hydroxypropylcellulose) (HPC)): 3 of 6

C/C(=N\Sc1ccccc1)c1ccccc1O
survivor count (T/C endpoint: mean survival time, dose: 400.0 mg/kg/injection, schedule: Q04DX002 (ip), vehicle: other): 1 of 3

C[n+]1cccc(SC2CCC3CC4CC3C2C4)c1 (stereo not given)
survivor count [5]: 0 of 3 | survivor count [6]: 0 of 3

O=C1CN=C(c2ccccc2Cl)c2cc(Cl)ccc2N1
survivor count (T/C endpoint: mean survival time, dose: 400.0 mg/kg/injection, schedule: Q04DX003 (ip), vehicle: Klucel (hydroxypropylcellulose) (HPC)): 2 of 4

Cc1ccc(N=Nc2sc(N)nc2C)cc1
survivor count [7]: 1 of 6

[C-]#[N+]C([N+]#[C-])=S(C)C
survivor count [4]: 3 of 6

COC(=O)C(CSC(c1ccc(N(C)C)cc1)c1ccc(N(C)C)cc1)NC(=O)OCc1ccccc1 (stereo not given)
survivor count (T/C endpoint: mean survival time, dose: 150.0 mg/kg/injection, schedule: Q01DX001 (ip), vehicle: carboxymethylcellulose (CMC)): 6 of 6

CN1CC(CO)C=C2c3cccc4[nH]cc(c34)CC21 (stereo not given)
survivor count (T/C endpoint: mean survival time, dose: 400.0 mg/kg/injection, schedule: Q01DX009 (ip), vehicle: alcohol): 0 of 6

CN(C)N=Nc1ccc(C(N)=O)cc1
T/C (T/C endpoint: median survival time, dose: 23.0 mg/kg/injection, schedule: Q01DX009 (ip), vehicle: steroid suspending solution): 135 % of control | T/C (T/C endpoint: median survival time, dose: 39.0 mg/kg/injection, schedule: Q01DX009 (ip), vehicle: steroid suspending solution): 140 % of control | T/C (T/C endpoint: median survival time, dose: 65.0 mg/kg/injection, schedule: Q04DX003 (ip), vehicle: steroid suspending solution): 130 % of control | survivor count (T/C endpoint: median survival time, dose: 108.0 mg/kg/injection, schedule: Q01DX009 (ip), vehicle: steroid suspending solution): 8 of 8 | T/C (T/C endpoint: median survival time, dose: 108.0 mg/kg/injection, schedule: Q04DX003 (ip), vehicle: steroid suspending solution): 140 % of control | T/C (T/C endpoint: median survival time, dose: 180.0 mg/kg/injection, schedule: Q01DX001 (ip), vehicle: steroid suspending solution): 125 % of control | survivor count (T/C endpoint: median survival time, dose: 500.0 mg/kg/injection, schedule: Q01DX001 (ip), vehicle: steroid suspending solution): 0 of 8

CC(=O)OC(CC(=O)CC(O)(C(F)(F)F)C(F)(F)F)(C(F)(F)F)C(F)(F)F
survivor count (T/C endpoint: mean survival time, dose: 100.0 mg/kg/injection, schedule: Q04DX003 (ip), vehicle: saline with Tween-80): 1 of 6 | survivor count (T/C endpoint: mean survival time, dose: 200.0 mg/kg/injection, schedule: Q04DX003 (ip), vehicle: saline with Tween-80): 0 of 6 | survivor count (T/C endpoint: mean survival time, dose: 400.0 mg/kg/injection, schedule: Q04DX003 (ip), vehicle: saline with Tween-80): 0 of 6

CCOC(=O)C12CCCC(C1=O)[N+](CC)(CC)CC2 (stereo not given)
survivor count [7]: 0 of 6

CS(=O)(=O)Nc1cc(C(O)C2CCCCN2)ccc1O (stereo not given)
survivor count [4]: 5 of 6
